These results are taken from patent publication US20070055459A1 (Harvard, published 2007).

The assay deals with T1, HSV UL42 (processivity factor of HSV DNA polymerase) (herpes simplex virus (HSV)) (UniProt P10226).
T1 sequence: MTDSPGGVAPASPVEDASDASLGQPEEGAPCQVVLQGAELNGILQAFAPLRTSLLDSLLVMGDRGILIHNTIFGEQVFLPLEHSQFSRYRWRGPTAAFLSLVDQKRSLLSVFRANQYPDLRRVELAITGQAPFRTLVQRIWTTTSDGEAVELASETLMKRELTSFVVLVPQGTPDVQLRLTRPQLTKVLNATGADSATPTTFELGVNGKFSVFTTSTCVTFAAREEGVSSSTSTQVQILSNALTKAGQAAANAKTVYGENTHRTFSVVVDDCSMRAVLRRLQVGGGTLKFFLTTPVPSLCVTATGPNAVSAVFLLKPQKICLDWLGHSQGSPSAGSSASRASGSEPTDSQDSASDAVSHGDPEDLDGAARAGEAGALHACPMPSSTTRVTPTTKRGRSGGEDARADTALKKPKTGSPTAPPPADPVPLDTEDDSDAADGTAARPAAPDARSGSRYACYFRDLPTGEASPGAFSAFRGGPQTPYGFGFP
The assay is described as follows: ITC. (ITC needs no label: the signal is the heat of the interaction.)

No constants are given. Whether binding was seen depends on the method and setting. Some entries that bind do so weakly or less than the wild type.

As for ATAEETRRMLHRAFDTLA [Peptide E (last 18 residues of HSV DNA polymerase, Pol residues 1218-1235)], the binding entry is on record as “binds”.
Take DDVAARLRAAGFGAVGAGATAEETRRMLHRAFDTLA [Peptide A (C-terminal 36 amino acid residues of HSV DNA polymerase, Pol residues 1200-1235)]: the binding result is listed as “binds”.
